In PMC9788671 one finds binding data, which are given here for eight molecules.

The chains behind the UniProt entries cited, without tags or fusion partners.
UniProt Q9NZV8: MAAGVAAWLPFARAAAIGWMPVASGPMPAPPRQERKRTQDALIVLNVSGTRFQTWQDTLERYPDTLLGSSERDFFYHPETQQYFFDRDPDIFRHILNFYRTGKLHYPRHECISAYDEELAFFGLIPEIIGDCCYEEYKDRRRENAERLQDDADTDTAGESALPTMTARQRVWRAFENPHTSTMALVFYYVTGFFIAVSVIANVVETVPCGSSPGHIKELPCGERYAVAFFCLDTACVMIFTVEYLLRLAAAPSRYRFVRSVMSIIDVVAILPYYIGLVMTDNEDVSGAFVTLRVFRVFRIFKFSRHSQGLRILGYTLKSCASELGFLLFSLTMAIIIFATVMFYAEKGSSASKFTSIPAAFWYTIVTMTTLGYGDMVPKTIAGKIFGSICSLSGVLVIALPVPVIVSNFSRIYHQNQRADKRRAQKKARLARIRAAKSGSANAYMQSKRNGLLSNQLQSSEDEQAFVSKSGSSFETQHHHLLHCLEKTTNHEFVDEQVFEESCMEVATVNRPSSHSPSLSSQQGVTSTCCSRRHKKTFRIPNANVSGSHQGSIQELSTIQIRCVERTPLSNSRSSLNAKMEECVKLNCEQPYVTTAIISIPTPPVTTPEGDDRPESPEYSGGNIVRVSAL

Results are given in words; binding and its absence hold for the method and conditions named. In cells and extracts the contact can be indirect. A yes stands for co-enrichment or nearness to the bait. Other partners may have been found.

The labels stand for the following.
B1: Atp2c1 (protein, UniProt Q64566 1-919)
chain: MKVARFQKIPNVENETMIPVLTSKRASELAVSEVAGLLQADLQNGLNKSEVSHRRAFHGWNEFDISEDEPLWKKYISQFKNPLIMLLLASAVISVLMRQFDDAVSITVAILIVVTVAFVQEYRSEKSLEELSKLVPPECHCVREGKLEHTLARDLVPGDTVCLSVGDRVPADLRLFEAVDLSIDESSLTGETTPCSKVTAPQPAATNGDLASRSNIAFMGTLVRCGKAKGIVIGTGENSEFGEVFKMMQAEEAPKTPLQKSMDLLGKQLSFYSFGIIGIIMLVGWLLGKDILEMFTISVSLAVAAIPEGLPIVVTVTLALGVMRMVKKRAIVKKLPIVETLGCCNVICSDKTGTLTKNEMTVTHILTSDGLHAEVTGVGYNQFGEVIVDGDVVHGFYNPAVSRIVEAGCVCNDAVIRNNTLMGKPTEGALIALAMKMGLDGLQQDYIRKAEYPFSSEQKWMAVKCVHRTQQDRPEICFMKGAYEQVIKYCTTYNSKGQTLALTQQQRDLYQQEKAQMGSAGLRVLALASGPDLGQLTLLGLVGIIDPPRTGVKEAVTTLIASGVSIKMITGDSQETAIAIASRLGLYSKTSQSVSGEEVDTMEVQHLSQIVPKVAVFYRASPRHKMKIIKSLQKNGSVVAMTGDGVNDAVALKAADIGVAMGQTGTDVCKEAADMILVDDDFQTIMSAIEEGKGIYNNIKNFVRFQLSTSIAALTLISLATLMNFPNPLNAMQILWINIIMDGPPAQSLGVEPVDKDVIRKPPRNWKDSILTKNLILKILVSSIIIVCGTLFVFWRELRDNVITPRDTTMTFTCFVFFDMFNALSSRSQTKSVFEIGLCSNKMFCYAVLGSIMGQLLVIYFPPLQKVFQTESLSILDLLFLLGLTSSVCIVSEIIKKVERSREKTQKNTTSTPSSFLEV
B2: Camkv (protein, UniProt Q63092 1-504)
chain: MPFGCVTLGDKKNYNQPSEVTDRYDLGQVVKTEEFCEIFRAKDKTTGKLHTCKKFQKRDGRKVRKAAKNEIGILKMVKHPNILQLVDVFVTRKEYFIFLELATGREVFDWILDQGYYSERDTSNVVRQVLEAVAYLHSLKIVHRNLKLENLVYYNRLKNSKIVISDFHLAKLENGLIKEPCGTPEYLAPEVVGRQRYGRPVDCWAIGVIMYILLSGNPPFYEEVEEDDYENHDKNLFRKILAGDYEFDSPYWDDISQAAKDLVTRLMEVEQDQRITAEEAISHEWISGNAASDKNIKDGVCAQIEKNFARAKWKKAVRVTTLMKRLRAPEQSGTAATSDAATPGAAGGAVAAAAGGAAPASGASATVGTGGDAGCAAKSDDMASADRSATPATDGSATPATDGSVTPATDGSITPATDGSVTPATDRSATPATDGRATPATEESTVPAAQSSAAPAAKAAATPEPAVAQPDSTALEGATGQAPPSSKGEEATGCAQESQRVETS
B3: Taok1 (protein, UniProt O88664 1-1001)
chain: MPSTNRAGSLKDPEIAELFFKEDPEKLFTDLREIGHGSFGAVYFARDVRTNEVVAIKKMSYSGKQSTEKWQDIIKEVKFLQRIKHPNSIEYKGCYLREHTAWLVMEYCLGSASDLLEVHKKPLQEVEIAAITHGALQGLAYLHSHTMIHRDIKAGNILLTEPGQVKLADFGSASMASPANSFVGTPYWMAPEVILAMDEGQYDGKVDVWSLGITCIELAERKPPLFNMNAMSALYHIAQNESPTLQSNEWSDYFRNFVDSCLQKIPQDRPTSEELLKHMFVLRERPETVLIDLIQRTKDAVRELDNLQYRKMKKLLFQEAHNGPAVEAQEEEEEQDHGGGRTGTVNSVGSNQSIPSMSISASSQSSSVNSLPDASDDKSELDMMEGDHTVMSNSSVIHLKPEEENYQEEGDPRTRASAPQSPPQVSRHKSHYRNREHFATIRTASLVTRQMQEHEQDSELREQMSGYKRMRRQHQKQLMTLENKLKAEMDEHRLRLDKDLETQRNNFAAEMEKLIKKHQASMEKEAKVMANEEKKFQQHIQAQQKKELNSFLESQKREYKLRKEQLKEELNENQSTPKKEKQEWLSKQKENIQHFQAEEEANLLRRQRQYLELECRRFKRRMLLGRHNLEQDLVREELNKRQTQKDLEHAMLLRQHESMQELEFRHLNTIQKMRCELIRLQHQTELTNQLEYNKRRERELRRKHVMEVRQQPKSLKSKELQIKKQFQDTCKIQTRQYKALRNHLLETTPKSEHKAVLKRLKEEQTRKLAILAEQYDHSINEMLSTQALRLDEAQEAECQVLKMQLQQELELLNAYQSKIKMQAEAQHDRELRELEQRVSLRRALLEQKIEEEMLALQNERTERIRSLLERQAREIEAFDSESMRLGFSNMVLSNLSPEAFSHSYPGASSWSHNPTGGSGPHWGHPMGGTPQAWGHPMQGGPQPWGHPSGPMQGVPRGSSIGVRNSPQALRRTASGGRTEQGMSRSTSVTSQISNGSHMSYT
B4: Psmd1 (protein, UniProt O88761 1-953)
chain: MITSAAGIISLLDEEEPQLKEFALHKLNAVVNDFWAEISESVDKIEVLYEDEGFRSRQFAALVASKVFYHLGAFEESLNYALGAGDLFNVNDNSEYVETIIAKCIDHYTKQCVENADLPEGEKKPIDQRLEGIVNKMFQRCLDDHKYKQAIGIALETRRLDVFEKTILESNDVPGMLAYSLKLCMSLMQNKQFRNKVLRVLVKIYMNLEKPDFINVCQCLIFLDDTQAVSDILEKLVKEDNLLMAYQICFDLYESASQQFLSSVIQNLRTVGTPIASVPGSTNTGTVPGPEKDSDSMETEEKTAGAVAGKTPDASPEPKDQTLKMIKILSGEMAIELHLQFLIRNNNTDLMILKNTKDAVRNSVCHTATVIANSFMHCGTTSDQFLRDNLEWLARATNWAKFTATASLGVIHKGHEKEALQLMATYLPKDTSPGSAYQEGGGLYALGLIHANHGGDIIDYLLNQLKNASNDIVRHGGSLGLGLAAMGTARQDVYDLLKTNLYQDDAVTGEAAGLALGLVMLGSKNTQAIEDMVGYAQETQHEKILRGLAVGIALVMYGRMEEADALIESLCRDKDPILRRSGMYTVAMAYCGSGNNKAIRRLLHVAVSDVNDDVRRAAVESLGFILFRTPEQCPSVVSLLSESYNPHVRYGAAMALGVCCAGTGNKEAINLLEPMTNDPVNYVRQGALIASALIMIQQTEITCPKVNQFRQLYSKVINDKHDDVMAKFGAILAQGILDAGGHNVTISLQSRTGHTHMPSVVGVLVFTQFWFWFPLSHFLSLAYTPTCIIGLNKDLKMPKVQYKSNCKPSTFAYPAPLEVPKEKEKEKVSTAVLSITAKAKKKEKEKEKKEEEKMEVDEAEKKEEKEKKKEPEPNFQLLDNPARVMPAQLKVLSMTETCRYQPFKPLSIGGIIILKDTSEDIEELVEPVAAHGPKIEEEEQEPEPPEPFEYIDD
B5: Dnajc16 (protein, UniProt Q5FVM7 26-771)
chain: LDFDPYRVLGVSRTASQADIKKAYKKLAREWHPDKNKDPGAEDKFIQISKAYEILSNEEKRTNYDHYGDAGENQGYQQQREYRFRHFHENFYFDESFFHFPFNSERRDSIDEKYLLHFSHYVNEVVPDSFKKPYLIKITSDWCFSCIHIEPIWKEVVQELEGLGVGIGVVHAGYERRLAHHLGAHSTPSILGIINGKISFFHNAVVHENLRQFVESLLPGNLVEKVTNKNYVRFLSGWQQENKPHALLFGQTPAAPLLYKLTAFAYKDYVSFGYVYVGLRGVEEMTRQYNVNIYAPTMLIFKEHINKPADAIQARGLKKQVIEDFITQNKYLLASRLTSQKLFHELCPVKRSHRQRKYCVVLLTAEANKLSKPFDAFLSFALANTQDTVRFVHVYSSRQQEFASTLLPDIEAFQGKSGVSILERRNTAGRVVFKTLEDPWTGSESDKFVLLGYLDQLRKDPAFLSSEAVLPDLTDELAPVFLLRWLYSVSDYLSDFWESLLHSNWREMMPLLSLIFSALFILFGTVIVQAFSDSNEERESHPPDKEEVPEKAGKTEPSFTKESSSKIPKKGFVEVTELTDVTYTSNLVRLRPGHMNVVLILSNSTKTSLLQKFALEVYTFTGSSSLHFSFLTLDKHREWLEYLLEFAQDAAPIPNQYDKHFMERDYTGYVLALNGHKKYFCLFKPLKTVDEETVGSCDLDSSRGKPPCGLGPKPLKGKLSKLSLWMERLLEGSLQRFYIPSWPELD
B6: Nefl (protein, UniProt P19527 1-542)
chain: MSSFSYEPYFSTSYKRRYVETPRVHISSVRSGYSTARSAYSSYSAPVSSSLSVRRSYSSSSGSLMPSLENLDLSQVAAISNDLKSIRTQEKAQLQDLNDRFASFIERVHELEQQNKVLEAELLVLRQKHSEPSRFRALYEQEIRDLRLAAEDATNEKQALQGEREGLEETLRNLQARYEEEVLSREDAEGRLMEARKGADEAALARAELEKRIDSLMDEIAFLKKVHEEEIAELQAQIQYAQISVEMDVSSKPDLSAALKDIRAQYEKLAAKNMQNAEEWFKSRFTVLTESAAKNTDAVRAAKDEVSESRRLLKAKTLEIEACRGMNEALEKQLQELEDKQNADISAMQDTINKLENELRSTKSEMARYLKEYQDLLNVKMALDIEIAAYRKLLEGEETRLSFTSVGSITSGYSQSSQVFGRSAYSGLQSSSYLMSARAFPAYYTSHVQEEQSEVEETIEATKAEEAKDEPPSEGEAEEEEKEKEEGEEEEGAEEEEAAKDESEDAKEEEGGEGEEEDTKESEEEEKKEESAGEEQAAKKKD
B7: Trim67 (protein, UniProt D3ZTX1 1-772)
chain: MEEELKCPVCGSLFREPIILPCSHNVCLPCARTIAVQTPDGEQHLPPPLLLSRGAAAAAAAPPPDQDAAAGATCGGAGASTAGGLGGGAAGGGDHADKLSLYSETDSGYGSYTPSLKSPNGVRVLPMVPAPPGSSAAAARGAACSSLCSSSSSITCPQCHRSASLDHRGLRGFQRNRLLEGIVQRYQQGRGVAAGASAAPAVAICQLCDRTPPEPAATLCEQCDVLYCATCQLKCHPSRGPFAKHRLVQPPPPPAPPEATSASVGTSTASSAGGCRSPGGAGAPVPRKFPTCPEHEMENYSMYCVSCRSPVCYMCLEEGRHGKHEVKPLGATWKQHKAQLSQALNGVSDKAKEAKEFLVQLKNILQQIQENGLDYEACLVAQCDALVDALTRQKAKLLTKVTKEREQKLKMVWDQINHCTLKLRQSTGLMEYCLEVIKEDDPSGFLQISDALIKRVQTSQEQWVKGALEPKVSAEFDLTLDSEPLLQAIHQLDFVQMKCRVPPVPLLQLEKCCTRNNSATLAWRTPPFTHSPADGYILELDDGDGGQFREVYVGKETLCTIDGLHFNSTYNARVKAFNSSGVGPYSKTVVLQTSDVAWFTFDPNSGHRDIILSNDNQTATCSSYDDRVVLGTAAFSKGAHYWELHVDRYDNHPDPAFGVARASVVKDMMLGKDDKAWAMYVDNNRSWFMHCNSHTNRTEGGVCKGATVGVLLDLNKHTLTFFINGQQQGPTAFSHVDGVFMPALSLNRNVQVTLHTGLEVPTNLGRPKLSGN
B8: Marcks (protein, UniProt P30009 1-309)
chain: MGAQFSKTAAKGEAAAERPGEAAVASSPSKANGQENGHVKVNGDASPAAAEPGAKEELQANGSAPAADKEEPASGGAATPAAADKDEAAAAPEPGAATADKEAAEAEPAEPGSPSAETEGASASSTSSPKAEDGAAPSPSSETPKKKKKRFSFKKSFKLSGFSFKKSKKEAGEGAEAEGATADGAKDEAAAAAGGDAAAAPGEQAGGAGAEGAEGGESREAEAAEPEQPEQPEQPAAEEPRAEEPSEAVGEKAEEPAPGATADDAPSAAGPEQEAPAATDEPAASAAPSASPEPQPECSPEAPPAPVAE

This assay deals with TAP-Kv4.2 (human) (UniProt Q9NZV8). In words: affinity purification with mass spectrometry; TAP-Kv4.2 expressed by lentivirus in rat hippocampal neurons, harvested at DIV14; weak lysis buffer of the kit (0.1% NP-40); streptavidin resin, then calmodulin resin; gel cut into high and low molecular weight fragments; no MS of the control sample.
Take B1: the binding result is on record as “binds”.

As to B2, the binding result is “binds”.

As to B3, the binding entry is reported as “binds”.

With B4, the binding entry was “binds”.

Take B5: the binding result is “binds”.

B6: the binding entry is given as “binds”.

Take B7: the binding result is “binds”.

Take B8: the binding entry is “binds”.
